Data reported in paper PMC9325611.
These are yes or no findings as the source states them, for the method shown. In cells and extracts the contact can be indirect. Some binding calls cover weakened binding; strength is not graded here.

Protein sequences, listed by entry. Tags and fused reporters are not part of them.
UniProt P63085: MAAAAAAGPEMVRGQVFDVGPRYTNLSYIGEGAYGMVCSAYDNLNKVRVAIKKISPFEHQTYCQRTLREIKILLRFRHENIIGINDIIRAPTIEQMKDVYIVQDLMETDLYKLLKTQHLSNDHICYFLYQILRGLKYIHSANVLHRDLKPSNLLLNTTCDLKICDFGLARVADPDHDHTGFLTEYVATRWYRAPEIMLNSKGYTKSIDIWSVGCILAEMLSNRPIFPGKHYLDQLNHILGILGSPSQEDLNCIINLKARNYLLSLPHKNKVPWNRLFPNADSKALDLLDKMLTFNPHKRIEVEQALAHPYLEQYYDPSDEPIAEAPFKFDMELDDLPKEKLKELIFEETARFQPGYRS

Target: T1, Biliverdin reductase A (mouse (endogenous in mouse LECs)) (UniProt Q9CY64)
T1 sequence: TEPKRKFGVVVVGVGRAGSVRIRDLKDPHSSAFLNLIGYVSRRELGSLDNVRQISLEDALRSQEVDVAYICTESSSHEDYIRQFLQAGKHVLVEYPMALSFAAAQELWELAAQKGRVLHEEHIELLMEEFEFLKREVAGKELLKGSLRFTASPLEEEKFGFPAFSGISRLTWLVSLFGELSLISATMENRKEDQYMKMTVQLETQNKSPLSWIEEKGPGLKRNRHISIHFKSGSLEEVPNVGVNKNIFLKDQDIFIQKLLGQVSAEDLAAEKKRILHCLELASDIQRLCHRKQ
Assay: co-IP; lysates of young and senescent mouse LECs, with or without 200 uM H2O2 for 4 h; antibodies against BVRA, ERK2 or normal mouse IgG at 4°C overnight, protein A/G Plus-Agarose beads 2 h at 4°C, western blot

Substance: ERK2 (from UniProt P63085 1-358)
- binding: binds
